Measurements: US20230002798A1, “PROCESS FOR THE PREPARATION OF A FERMENTABLE SUGAR COMPOSITION AND THE FERMENTATION THEREOF” (WeissBioTech GmbH, priority 2019, published 2023)
Some results were stated once for a whole list of compounds, not compound by compound.

Test: pH range of enzyme activity
Assay type: biochemical
Settings: Britton-Robinson buffer, pH 3 to pH 9 investigated

pH range	Molecule
4.5-8.0	Agl1: oligo-1,6-glucosidase of Bifidobacterium breve UCC2003, amino acid sequence SEQ ID NO:1, expressed in Bacillus subtilis (protein, Bifidobacterium breve UCC2003; ACM89182.1 alpha-glucosidase 1) MMTTFNRAIIPDAIRTNGATPNPWWSNAVVYQIYPRSFQDTNGDGFGDLKGITSRLDYLADLGVDVLWLSPVYKSPQDDNGYDISDYQDIDPLFGTLDDMDELLAEAHKRGLKVVMDLVVNHTSDEHAWFEASKNKDDEHADWYWWRPARPGTTPGEPGSEPNQWGSYFGGSAWEYCPERGEYYLHQFSKKQPDLNWENPAVRRAVYDMMNWWLDRGIDGFRMDVITLISKRTDANGRLPGEYGSELDDLPVGEEGYSNPNPFCADGPRQDEFLKEMRREVFAGREGFLTVGEAPGITPVRNEHITNPANGELDMLFLFDHVDFDCDGVKWKPLPLDLPGFKRIMAGYQTAVENVGWASLFTGNHDQPRVVSRWGDDSSEESRVRSAKALGLMLHMHRGTPYVYQGEELGMTNAHFTSLDQYRDLESLNAYRQRVEEAKVQSPESMLAGIAARGRDNSRTPMQWDGSAYAGFTAPDAATEPWISVNPNHAEINAAGEFDDPDSVYAFYKKLIALRHNSSIVAAGEWQLIDADDAHVYAFTRTLGNERLLVVVNLSGRTVDLPRESTELIAGGVTEPDIILSTYDAPHTVVSLANRELDPWEAAAVQL
4.5-8.0	Gth: oligo-1,6-glucosidase of Parageobacillus thermoglucosidasius, amino acid sequence SEQ ID NO:2, expressed in Bacillus subtilis (protein, listed as Parageobacillus thermoglucosidasius, WP_042386239.1 alpha-glucosidase) MERVWWKEAVVYQIYPRSFYDSNGDGIGDIRGIIAKLDYLKELGVDVVWLSPVYKSPNDDNGYDISDYRDIMDEFGTMADWKTMLEEMHKRGIKLVMDLVVNHTSDEHPWFIESRKSKDNPYRDYYIWRPGKNGKEPNNWESVFSGSAWEYDEMTGEYYLHLFSKKQPDLNWENPKVRREVYEMMKFWLDKGVDGFRMDVINMISKVPELPDGEPQSGKKYASGSRYYMNGPRVHEFLQEMNREVLSKYDIMTVGETPGVTPKEGILYTDPSRRELNMVFQFEHMDLDSGPGGKWDIRPWSLADLKKTMTKWQKELEGKGWNSLYLNNHDQPRAVSRFGDDGKYRVESAKMLATFLHMMQGTPYIYQGEEIGMTNVRFPSIEDYRDIETLNMYKERVEEYGEDPQEVMEKIYYKGRDNARTPMQWDDSENAGFTAGTPWIPVNPNYKEINVKAALEDPNSVFHYYKKLIQLRKQHDIIVYGTYDLILEDDPYIYAYTRTLGNEQLIVITNFSEKTPVFRLPDHIIYKTKELLISNYDVDEAEELKEIRLRPWEARVYKIRLP
